{"source": "paper PMC5996148", "assay_in_all_cases": "protein microarray (ProtoArray v5.0), streptavidin-Alexa Fluor 647", "conditions_in_all_cases": "3'-biotin; 20 mM Tris (pH 7.5), 5 mM MgCl2, 100 mM KCl, 0.1% Tween-20, A/T-rich and random oligonucleotide blockers; temperature not stated; high values mean tight binding", "key": {"[1]": {"tested_on": "C9orf62 (human)"}, "[2]": {"tested_on": "C9orf64 (human)"}, "[3]": {"tested_on": "C9orf71 (human)"}, "[4]": {"tested_on": "C9orf80 (human)"}, "[5]": {"tested_on": "C9orf95 (human)"}, "[6]": {"tested_on": "C9orf97 (human)"}, "[7]": {"tested_on": "CA5B (human)"}, "[8]": {"target": "CA9 (UniProt Q16790)"}, "[9]": {"tested_on": "CAB39 (human)"}, "[10]": {"tested_on": "CABC1 (human)"}}, "note": "Some of the results follow. For some of these results: Construct or isoform of the protein are uncertain.", "data": [{"sequence": "GGGAGGCTGAGGCAGG [G4-1 biotinylated (PQS2)]", "values": [{"measurement": "binding signal", "setting": "[1]", "value": -0.292, "unit": "z-score"}, {"measurement": "binding signal", "setting": "[2]", "value": -0.314, "unit": "z-score"}, {"measurement": "binding signal", "setting": "[3]", "value": -0.32, "unit": "z-score"}, {"measurement": "binding signal", "setting": "[4]", "value": -0.312, "unit": "z-score"}, {"measurement": "binding signal", "setting": "[5]", "value": -0.343, "unit": "z-score"}, {"measurement": "binding signal", "setting": "[6]", "value": -0.289, "unit": "z-score"}, {"measurement": "binding signal", "setting": "[7]", "value": -0.253, "unit": "z-score"}, {"measurement": "binding signal", "setting": "[8]", "value": -0.354, "unit": "z-score"}, {"measurement": "binding signal", "setting": "[9]", "value": -0.346, "unit": "z-score"}, {"measurement": "binding signal", "setting": "[10]", "value": -0.283, "unit": "z-score"}]}]}
